# Data: article PMC5085163
# Chains of the proteins cited; added tags and fusions are not shown.
# UniProt Q04724: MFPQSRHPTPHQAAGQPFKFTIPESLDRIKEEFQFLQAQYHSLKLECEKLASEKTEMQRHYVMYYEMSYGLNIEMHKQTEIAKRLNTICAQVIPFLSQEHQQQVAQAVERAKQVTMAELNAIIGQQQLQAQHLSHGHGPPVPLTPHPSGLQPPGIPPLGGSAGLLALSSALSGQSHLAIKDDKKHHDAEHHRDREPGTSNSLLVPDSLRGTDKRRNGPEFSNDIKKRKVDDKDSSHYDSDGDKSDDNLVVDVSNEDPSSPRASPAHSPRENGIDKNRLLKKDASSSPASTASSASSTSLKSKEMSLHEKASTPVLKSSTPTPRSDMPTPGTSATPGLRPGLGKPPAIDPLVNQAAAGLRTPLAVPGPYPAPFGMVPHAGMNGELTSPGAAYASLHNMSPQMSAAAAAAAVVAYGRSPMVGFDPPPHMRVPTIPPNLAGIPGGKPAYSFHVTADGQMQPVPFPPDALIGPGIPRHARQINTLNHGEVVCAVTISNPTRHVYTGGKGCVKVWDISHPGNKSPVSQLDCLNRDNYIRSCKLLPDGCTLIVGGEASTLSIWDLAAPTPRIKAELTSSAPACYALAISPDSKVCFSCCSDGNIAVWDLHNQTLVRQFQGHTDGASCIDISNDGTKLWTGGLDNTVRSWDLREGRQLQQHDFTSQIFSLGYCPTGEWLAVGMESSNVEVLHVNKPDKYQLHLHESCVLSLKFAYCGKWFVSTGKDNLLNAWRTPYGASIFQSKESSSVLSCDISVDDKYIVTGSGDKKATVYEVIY
# UniProt Q15532: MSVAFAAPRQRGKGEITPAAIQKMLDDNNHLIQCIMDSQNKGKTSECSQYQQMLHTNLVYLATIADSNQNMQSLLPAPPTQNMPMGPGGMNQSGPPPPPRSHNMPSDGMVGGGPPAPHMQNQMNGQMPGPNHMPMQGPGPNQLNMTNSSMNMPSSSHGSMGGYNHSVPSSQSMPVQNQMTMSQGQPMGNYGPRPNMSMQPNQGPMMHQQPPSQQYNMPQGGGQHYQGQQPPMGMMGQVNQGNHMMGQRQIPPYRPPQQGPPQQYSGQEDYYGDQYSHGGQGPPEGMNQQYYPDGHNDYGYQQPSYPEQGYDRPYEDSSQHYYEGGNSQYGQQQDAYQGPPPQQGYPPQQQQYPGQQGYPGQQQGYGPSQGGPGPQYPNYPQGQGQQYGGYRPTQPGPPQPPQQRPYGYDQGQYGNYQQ
# Results are given in words; binding and its absence hold for the method and conditions named. Binding seen in cells or lysates may run through a third protein.
# Assays:
# [1] = target: transducin-like enhancer of split 1 (TLE1) (human (endogenous in synovial sarcoma and control cell lines and tumor tissue)) (UniProt Q04724); assay: proximity ligation; brightfield Duolink protocol on 4 μm FFPE sections of tumor tissue and embedded cell line pellets; anti-SS18 and anti-TLE1 overnight
# [2] = target: transducin-like enhancer of split 1 (TLE1) (human (endogenous in synovial sarcoma and control cell lines and tumor tissue)) (UniProt Q04724); assay: proximity ligation; Duolink In Situ Red kit on cultured cells fixed with 3% formaldehyde and permeabilized with 0.1% Triton X-100; rabbit anti-SS18 and mouse anti-TLE1 primary antibodies overnight at 4°C; nuclear foci per nucleus; also done after HDAC inhibitors, SXT1596 and siRNA/shRNA against SS18-SSX
substance,measurement,setting,value
wild-type SS18 (from UniProt Q15532 1-418),binding,[1],no binding
same,binding,[2],no binding
